Experimental findings from paper PMC6353964 are described below.

Protein sequences, listed by entry. Tags and fused reporters are not part of them.
UniProt Q92754: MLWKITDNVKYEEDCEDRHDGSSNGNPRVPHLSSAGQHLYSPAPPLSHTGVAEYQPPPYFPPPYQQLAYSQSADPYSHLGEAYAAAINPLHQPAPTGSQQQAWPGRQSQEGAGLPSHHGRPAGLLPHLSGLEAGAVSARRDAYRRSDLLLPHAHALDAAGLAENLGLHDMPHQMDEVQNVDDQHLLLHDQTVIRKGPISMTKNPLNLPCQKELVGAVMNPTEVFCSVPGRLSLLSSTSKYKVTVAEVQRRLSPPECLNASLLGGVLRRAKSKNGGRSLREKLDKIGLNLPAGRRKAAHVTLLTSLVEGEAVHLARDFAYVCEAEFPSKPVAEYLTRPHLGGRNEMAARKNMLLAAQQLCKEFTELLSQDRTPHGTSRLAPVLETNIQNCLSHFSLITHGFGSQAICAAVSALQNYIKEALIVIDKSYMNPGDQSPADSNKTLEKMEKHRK

Residue numbers refer to the chain shown, from its start. Names and notes keep the numbering of the source. These are yes or no findings as the source states them, for the method shown. Binding seen in cells or lysates may run through a third protein. Some entries that bind do so weakly or less than the wild type.

In the experiment the target is Flag-tagged AP2γ (UniProt Q92754). The experiment is described as follows: co-IP; Flag-AP2γ captured from H1299 cell lysate (NP40 lysis buffer) on anti-FLAG M2 magnetic beads, 2-3 h at 4 °C; washed in 150 mM NaCl, 50 mM Tris pH 7.5, 1 mM EDTA, 0.5% NP40, 10% glycerol; eluted with Flag peptide; western blot with anti-p53 or anti-p73; for the TDD constructs cells treated with MG132 (1 μM). (A western blot detects proteins with antibodies after separation by electrophoresis.)

B1: TAp73α (protein, UniProt O15350 1-636)
chain: MAQSTATSPDGGTTFEHLWSSLEPDSTYFDLPQSSRGNNEVVGGTDSSMDVFHLEGMTTSVMAQFNLLSSTMDQMSSRAASASPYTPEHAASVPTHSPYAQPSSTFDTMSPAPVIPSNTDYPGPHHFEVTFQQSSTAKSATWTYSPLLKKLYCQIAKTCPIQIKVSTPPPPGTAIRAMPVYKKAEHVTDVVKRCPNHELGRDFNEGQSAPASHLIRVEGNNLSQYVDDPVTGRQSVVVPYEPPQVGTEFTTILYNFMCNSSCVGGMNRRPILIIITLEMRDGQVLGRRSFEGRICACPGRDRKADEDHYREQQALNESSAKNGAASKRAFKQSPPAVPALGAGVKKRRHGDEDTYYLQVRGRENFEILMKLKESLELMELVPQPLVDSYRQQQQLLQRPSHLQPPSYGPVLSPMNKVHGGMNKLPSVNQLVGQPPPHSSAATPNLGPVGPGMLNNHGHAVPANGEMSSSHSAQSMVSGSHCTPPPPYHADPSLVSFLTGLGCPNCIEYFTSQGLQSIYHLQNLTIEDLGALKIPEQYRMTIWRGLQDLKQGHDYSTAQQLLRSSNAATISIGGSGELQRQRVMEAVHFRVRHTITIPNRGGPGGGPDEWADFGFDLPDCKARKQPIKEEFTEAEIH
B1: the binding result was “binds”.

B2: TAp73α L377P (protein, UniProt O15350 1-636)
chain: B1 chain with L377P
Take B2: the binding entry is reported as “binds”.
